From ChEMBL document CHEMBL4321792, “Discovery of 4-Methylquinazoline Based PI3K Inhibitors for the Potential Treatment of Idiopathic Pulmonary Fibrosis” (J Med Chem, 2019)

Assays:
[1] = simulated gi fluid, 1 h, pH 6.5
[2] = buffer, 1 h, pH 7.4

COc1ncc(-c2cc(OC3CCOCC3)c3nc(N)nc(C)c3c2)cc1NS(=O)(=O)c1ccc(F)cc1F
Therm_solubility [1]: Soluble
Therm_solubility [2]: Soluble
